Results reported in PubChem BioAssay AID2685 (National Center for Advancing Translational Sciences (NCATS), 2010).
About 2,100 (0.66%) of roughly 320,000 compounds were called active. The shares of active, inactive and inconclusive entries below differ from those in the screen. Calls come from the whole dose curve; as a rule, active = well fitted inhibition curve with a large enough effect in the signal ratio, with a control signal flat (not every such curve was filed as active); inconclusive = small, poorly fitted or top-dose-only effect, or effect the other way, or a change in a side signal; inactive = flat fitted curve, though single readings scatter; the % refers to the signal ratio. Where the call is inconclusive, the potency comes from a doubtful curve fit.

Experiment: qHTS Assay for Lipid Storage Modulators in Drosophila S3 Cells
Conditions: BODIPY lipid droplet fluorescence, 18-24 h, cells fed with added oleic acid; lipid storage change, negative = inhibition: at 46.1 µM (top of the series) unless noted
Summary of the method: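 Laser-scanning cytometry quantifies lipid droplet accumulation (500–530 nm total intensity; droplet/cell object ratio) in oleic acid-fed (400 uM added) Drosophila S3 cells treated with a concentration series. 20 uM Triacsin C defined 100% inhibition.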
% is set by controls: 0 for no effect and ±100 for the full control effect; potency is the fitted concentration of half-maximal effect.

SMILES | Potency | lipid storage change, negative = inhibition
COc1ccc(NC(=O)NC23CC4(C)CC(C)(CC(C)(C4)C2)C3)cc1OC | inconclusive: 29.1 µM [falling, single point] | 
N#Cc1cccc(NCC(=O)Nc2cccc(S(=O)(=O)N3CCCCC3)c2)c1 |  | inconclusive: 20.7%
CCCn1c(SCC(=O)N2CCCC(C)C2)nnc1-c1ccccn1 (centres undefined) |  | inconclusive: 8.35%
COc1ccccc1Cc1nc2ccccc2n1S(=O)(=O)c1ccc(Cl)cc1 | inconclusive: 10.3 µM [activator, partial curve] | 
CCn1c2ccccc2c2cc(NC(=O)CSc3nnc(-c4cccc(C)c4)o3)ccc21 | inconclusive: 0.461 µM [activator, single point] | 
COc1cccc(NC2=NC3(CCCCC3)N=C(N)N2)c1 | active: 6.51 µM | 
O=C(CSC(=S)N1CCCCC1)c1ccccc1 |  | inconclusive: 15.7%
Cc1csc(NC(=O)C2CCN(S(=O)(=O)c3ccc4c(c3)oc(=O)n4C)CC2)n1 |  | inconclusive: 67.4%
COc1ccc(CCNC(=O)CC2SC(N)=NC2=O)cc1OC (centres undefined) |  | inconclusive: -24.1%
Cc1ccc2c(CSc3nnc4ccccn34)cc(=O)oc2c1C |  | inconclusive: -1.11%
O=C(N/N=C/C=C/c1ccccc1)c1cc2c(ccc3ccccc32)o1 |  | inconclusive: -20.8%
CC(C)Oc1ccc(CCC(=O)NNC(=S)NCc2ccccc2)cc1 | inconclusive: 2.06 µM [rising, single point] | 
COC(=O)c1c(NC(=O)c2ccn(C)n2)sc2c1CCC2 | inconclusive: 20 µM [falling, partial curve, poor fit] | 
COc1cc(NC(=S)Nc2ccc3c(c2)OCCO3)cc(OC)c1OC |  | inconclusive: 22.9%
Nc1nnc(SCC(=O)Nc2ccc(N3CCOCC3)c(Cl)c2)s1 |  | inconclusive: -4.42%
COc1ccc(Cn2nnnc2C(c2ccc(F)cc2)N2CCN(C3CCCC3)CC2)cc1 (centres undefined) |  | inconclusive: -0.0298%
Cc1ccc(C(=O)/C=C/NCc2ccc(F)cc2)cc1 |  | inconclusive: 9.39%
O=C(NCc1cccc(C(F)(F)F)c1)C1CCCN(c2cnccn2)C1 (centres undefined) | inconclusive: 3.66 µM [activator, full curve, poor fit] | 
COc1ccccc1NS(=O)(=O)c1cccc(NC(=O)Cc2cccs2)c1 |  | inconclusive: 17.8%
CCOc1ccc(CCNC(=O)CSc2nn(-c3ccc(C)c(Cl)c3)c(=S)s2)cc1OCC | inconclusive: 9.2 µM [falling, partial curve] | 
O=C(O)[C@]1(S(=O)(=O)c2ccccc2)C[C@@H]2ON=C(c3cccc(Br)c3)[C@@H]2C1 |  | inconclusive: -6.34%
O=C(Nc1ccccc1)c1cccc(N2C(=O)CCC2=O)c1 |  | inconclusive: -17.6%
O=C(NC1CCCCC1)N(Cc1ccc(F)cc1)Cc1nc2ccccc2c(=O)[nH]1 | inconclusive: 0.731 µM [activator, single point] | 
CCOC(=O)c1c(C)c(-c2ccccc2)n(CC(=O)NCCC(C)C)c1C |  | inconclusive: 27.9%
CCN(CC)S(=O)(=O)c1ccc(/C=C/C(=O)Nc2cccc(F)c2)cc1 | inconclusive: 2.31 µM [activator, full curve, poor fit] | 

SMILES | Potency | lipid storage change, negative = inhibition
O=C(COc1ccc(Cl)cc1)NNC(=S)NCc1ccccc1 | inconclusive: 0.116 µM [falling, full curve, poor fit] | 
Cc1[nH]n(-c2ccccc2)c(=O)c1/C=C1/C=c2ccccc2=N1 |  | inconclusive: -64.5%
N=C(c1ccc([N+](=O)[O-])cc1)N1CCCCCC1 |  | inconclusive: 2.49%
Cc1nn(Cc2ccc(Cl)cc2Cl)c(C)c1NC(=O)c1sc2ccccc2c1Cl |  | inconclusive: -43.7%
CC1CCCC(NC(=O)CSc2ncccc2C(=O)O)C1C (centres undefined) |  | inconclusive: -47.5%
Oc1ccc(-c2cccc(-c3ccc(O)cc3)c2)cc1 |  | inconclusive: -29.9%
Cc1ccc(C)c(NC(=O)c2ccc[n+](Cc3ccc([N+](=O)[O-])cc3)c2)c1 |  | inactive
O=C(Nc1ccc(C(=O)NCc2ccccc2Cl)cc1)C1=CSCCO1 | inconclusive: 23.1 µM [activator, single point] | 
CC1CCN(C(=O)C2CCN(c3ncnc4c3nc3n4CCCCC3)CC2)CC1 | active: 3.66 µM | 
COC(=O)c1cc(OC)c(OC)cc1NC(=O)c1ccc(C)o1 | inconclusive: 0.291 µM [activator, full curve] | 
CCCCCC(=O)O/N=C(\C)c1ccn(S(=O)(=O)c2ccccc2)c1 |  | inconclusive: -21%
Cc1c(Cl)c([N+](=O)[O-])nn1CC(=O)NCCCN1CCOCC1 |  | inconclusive: 29.2%
CCc1nnc(NC(=O)CN2C(=O)/C(=C/c3ccc(OC)c(OC)c3)SC2=S)s1 |  | inconclusive: 6.11%
Cc1ccc(N(CC(=O)NC2CCCC2)C(=O)Cn2nnc(-c3ccccc3F)n2)cc1 |  | inconclusive: 31.3%
COc1ccc(OC)c(-c2c[n+](=O)c3c(n2[O-])CCCC3)c1 |  | inconclusive: -4.26%
Cc1ccc(C(=O)N/C(=C/c2ccc(Cl)cc2)C(=O)NCC2CCCO2)cc1 (centres undefined) |  | inconclusive: 29.3%
CC1CN(C(=O)Cc2ccc(-c3ccccc3)cc2)CC(C)O1 (centres undefined) |  | inconclusive: 2.54%
COC(=O)c1ccccc1NC(=O)NC1CCC(C)CC1 (centres undefined) |  | inconclusive: 11.3%
CCOC(=O)CSc1nc(-c2ccccc2)nc2ccc(F)cc12 |  | inconclusive: 34.1%
Cc1cc(C)n(-c2cc(C(=O)O)cc(C(=O)O)c2)n1 |  | inconclusive: 13.9%
COc1cccc(/C=N/NC(=O)C(=O)NCc2cccnc2)c1OC |  | inconclusive: -0.367%
O=C(/C=C/c1cccc([N+](=O)[O-])c1)N1CCN(Cc2ccccc2)CC1 |  | inconclusive: 23.2%
Cc1ccc(C)c2[nH]c(=O)c(CN(Cc3ccc4c(c3)OCO4)Cc3nnnn3Cc3ccco3)cc12 |  | inconclusive: 14.5%
COc1ccc(OC)c(S(=O)(=O)N2CCC(C(=O)NC(C)c3ccccc3)CC2)c1 (centres undefined) | inconclusive: 9.2 µM [activator, partial curve] | 

Some of the entries above, reformatted:
SMILES	Potency	lipid storage change, negative = inhibition
Cc1[nH]n(-c2ccccc2)c(=O)c1/C=C1/C=c2ccccc2=N1		inconclusive: -64.5%
Cc1ccc(C)c(NC(=O)c2ccc[n+](Cc3ccc([N+](=O)[O-])cc3)c2)c1		inactive
O=C(Nc1ccc(C(=O)NCc2ccccc2Cl)cc1)C1=CSCCO1	inconclusive: 23.1 µM [activator, single point]	
COC(=O)c1cc(OC)c(OC)cc1NC(=O)c1ccc(C)o1	inconclusive: 0.291 µM [activator, full curve]	
Cc1c(Cl)c([N+](=O)[O-])nn1CC(=O)NCCCN1CCOCC1		inconclusive: 29.2%
CCc1nnc(NC(=O)CN2C(=O)/C(=C/c3ccc(OC)c(OC)c3)SC2=S)s1		inconclusive: 6.11%
Cc1ccc(N(CC(=O)NC2CCCC2)C(=O)Cn2nnc(-c3ccccc3F)n2)cc1		inconclusive: 31.3%
COc1ccc(OC)c(-c2c[n+](=O)c3c(n2[O-])CCCC3)c1		inconclusive: -4.26%
CC1CN(C(=O)Cc2ccc(-c3ccccc3)cc2)CC(C)O1 (centres undefined)		inconclusive: 2.54%
